{"source": "patent US12698348B2", "about": "“Alkylated cyclodextrin compositions and processes for preparing and using the same” (CYDEX PHARMACEUTICALS, INC., priority 2020, dated 2026)", "origin": "cited, not measured here", "settings": "underivatized cyclodextrin, at saturation", "data": [{"smiles": "OC[C@H]1O[C@@H]2O[C@H]3[C@H](O)[C@@H](O)[C@@H](O[C@H]4[C@H](O)[C@@H](O)[C@@H](O[C@H]5[C@H](O)[C@@H](O)[C@@H](O[C@H]6[C@H](O)[C@@H](O)[C@@H](O[C@H]7[C@H](O)[C@@H](O)[C@@H](O[C@H]1[C@H](O)[C@H]2O)O[C@@H]7CO)O[C@@H]6CO)O[C@@H]5CO)O[C@@H]4CO)O[C@@H]3CO", "note": "[α-CD, α-cyclodextrin]", "values": [{"measurement": "solubility in water", "result": "about 145 g/L"}]}]}
